# Laboratory results: PMC7819943, “Rice protein-binding microarrays: a tool to detect cis-acting elements near promoter regions in rice”
# The other results are listed elsewhere or left out.
# Target: T1, OsSMF1 (Oryza sativa, UniProt Q6ZLB0 1-436)
# T1 sequence: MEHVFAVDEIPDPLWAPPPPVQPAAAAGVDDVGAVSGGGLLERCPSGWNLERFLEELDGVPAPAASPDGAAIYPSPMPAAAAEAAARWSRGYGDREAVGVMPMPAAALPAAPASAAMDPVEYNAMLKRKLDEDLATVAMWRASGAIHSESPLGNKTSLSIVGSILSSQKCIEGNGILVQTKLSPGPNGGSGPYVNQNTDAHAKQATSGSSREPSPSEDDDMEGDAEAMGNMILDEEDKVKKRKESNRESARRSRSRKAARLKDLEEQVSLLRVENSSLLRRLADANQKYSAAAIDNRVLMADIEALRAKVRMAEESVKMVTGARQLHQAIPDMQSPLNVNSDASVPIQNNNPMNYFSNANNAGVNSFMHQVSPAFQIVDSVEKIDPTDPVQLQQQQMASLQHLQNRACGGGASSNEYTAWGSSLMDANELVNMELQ
# Assay: protein-binding microarray (RPBM); PBS, 2% BSA, 51.3 ng/ul salmon testes DNA, 50 uM zinc acetate, 200 nM TF, 25 C, 1 h; high values mean tight binding
# Settings: protein: recombinant; tags: N-terminal polyhistidine and DsRed monomer fusion (pET32a); chain copies: 2; label: CyDye5-dUTP incorporated in the synthesized complementary strand; 3' TTTTT single-stranded linker to array surface; dsDNA, one strand shown
# Procedure, shortened: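 Binding signal here means per-feature fluorescence intensity in arbitrary units. The values were read on an Axon 4000B scanner after a custom Agilent array, double-stranded by primer extension with Cy5-dUTP, was incubated with 200 nM protein at 25 °C for 1 h in PBS with 2% BSA, salmon testes DNA and 50 µM zinc acetate, then washed. The proteins were transcription factors with an N-terminal polyhistidine tag and DsRed, expressed in E. coli BL21-CodonPlus and purified on Ni–NTA.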
row,Sequence,binding signal
1,ACCCTCCGACACATTCTTTTGAAGGTGTTCATGTAGATATCGGAGTCACCTAGTGCAG,3410 fluorescence intensity (a.u.)
2,CCTGTGATCCTTTCCTTACGTATGGTGATCTGCGAATGACCGGAGTCACCTAGTGCAG,29800 fluorescence intensity (a.u.)
3,GTCGTAGAGCTCCCCAATCAGGGCTTCCTCACTTGTGCCACGGAGTCACCTAGTGCAG,3230 fluorescence intensity (a.u.)
4,GCCGGCGTCGCCGTCGGGGATGCACCTCGGCGCGTCCGTCCGGAGTCACCTAGTGCAG,3550 fluorescence intensity (a.u.)
5,GGCAGCGGGGAATGAAGGTGGCGGTGATGGACGACGTGGCCGGAGTCACCTAGTGCAG,5180 fluorescence intensity (a.u.)
6,TACTCCGAAAGGCACACGTGACACGCCTTTGCCGCCTTTGCGGAGTCACCTAGTGCAG,7170 fluorescence intensity (a.u.)
7,GCGGCCCACTAGGCGACGTCCACGTCACCCGAATCCTCTGCGGAGTCACCTAGTGCAG,20900 fluorescence intensity (a.u.)
8,ACCCCAGCCGCCGCCACGTGCCGCATTGATGGTCCCGGCACGGAGTCACCTAGTGCAG,9120 fluorescence intensity (a.u.)
9,GCTTCTAATCTATACGTGTTCTAGCTAAGCTAGCTAGCTACGGAGTCACCTAGTGCAG,3680 fluorescence intensity (a.u.)
10,CGCTCGCCACGACTCCTCCCTCTGGCCGACTACTGCCGTCCGGAGTCACCTAGTGCAG,3500 fluorescence intensity (a.u.)
11,ACAACTTGGATCATAATAATATGGGGTTTTACGAAATGTACGGAGTCACCTAGTGCAG,33600 fluorescence intensity (a.u.)
12,TTCGAAGTATTGAACCATTGACTCATTGAGGTTAGGGAACCGGAGTCACCTAGTGCAG,3480 fluorescence intensity (a.u.)
13,ACAGGCACAGGATGATTCATCAGTACAGTTTCATGCAATCCGGAGTCACCTAGTGCAG,4900 fluorescence intensity (a.u.)
14,TGGTATTCAGGTTAATAAACCCAGTCGTCGTGGCACCGACCGGAGTCACCTAGTGCAG,6520 fluorescence intensity (a.u.)
15,CACAGAAATACGCCTTCGCCTTCCACGATGGATGGCGTAACGGAGTCACCTAGTGCAG,3860 fluorescence intensity (a.u.)
16,GCGACCCTCCCCTACCCCATCTCACTGACACGTGGGCCCACGGAGTCACCTAGTGCAG,11100 fluorescence intensity (a.u.)
17,AAGCAAGGGTCTCCGTCATGCTCACATTCCTAGGTCCTCCCGGAGTCACCTAGTGCAG,16400 fluorescence intensity (a.u.)
18,TCTCTGTGGAGAAAATTCGATCATAGCACAGCAAAGAAAACGGAGTCACCTAGTGCAG,5530 fluorescence intensity (a.u.)
19,GCTGCTGCTGCATCCTCCTCTCCTGTGACCTGTCACAGCTCGGAGTCACCTAGTGCAG,8080 fluorescence intensity (a.u.)
20,ACTGTGCGCCACACAAGTCACTGTCTCCTCCCAGATGGAGCGGAGTCACCTAGTGCAG,3300 fluorescence intensity (a.u.)
21,AGAAATATCATCAACCACCTCATAGTGACTTCGCTTCACTCGGAGTCACCTAGTGCAG,4410 fluorescence intensity (a.u.)

row,Sequence,binding signal
1,GCGCATTAGCCACCCCACCTCTCCGCGTGGGCCCCGCCAACGGAGTCACCTAGTGCAG,3160 fluorescence intensity (a.u.)
2,TCCACTAGCTAGTAGTACTACTTGAGTTCACAACCGTGCTCGGAGTCACCTAGTGCAG,3860 fluorescence intensity (a.u.)
3,CAGCCACCTGGGAGGATGCATCTTTCATTGCCAAGGTTTTCGGAGTCACCTAGTGCAG,25100 fluorescence intensity (a.u.)
4,ATGGCCATGTTTGTTTCAACTTAAGATTATTATAATCTAGCGGAGTCACCTAGTGCAG,33900 fluorescence intensity (a.u.)
5,TTTTAGCCTCCTTTTGGTTAATCTTTGTTTGATCCAAGAACGGAGTCACCTAGTGCAG,10200 fluorescence intensity (a.u.)
6,TAATTTTACACGTATTCAAGATATGCCACTACCCTTTGGACGGAGTCACCTAGTGCAG,6340 fluorescence intensity (a.u.)
7,CCGCGACAGAGGCACGGGTCGCCACGTACGTTCGCAGCTCCGGAGTCACCTAGTGCAG,7950 fluorescence intensity (a.u.)
8,ATTAAAGTGGATTAAAGTGTATTCCTTATACACCAGTTAGCGGAGTCACCTAGTGCAG,3140 fluorescence intensity (a.u.)
9,TATGTGTTGACACCAAGGCTGACTCGGTTTTCGTCAAGGTCGGAGTCACCTAGTGCAG,6530 fluorescence intensity (a.u.)
10,AAAGGAAAATAACAAGGCATGTAACGGTGTTTACCATATCCGGAGTCACCTAGTGCAG,9130 fluorescence intensity (a.u.)
11,ACCGTGAGATCCATCACAGCAATCCCACAATCACGACCGTCGGAGTCACCTAGTGCAG,4230 fluorescence intensity (a.u.)
12,CGGTGTCAAACTGTCATGGGTAAGATGAATCATCCTTATGCGGAGTCACCTAGTGCAG,3800 fluorescence intensity (a.u.)
13,TTGCGATTGGAGAGACAGAGAGGAGGGTGTGGGTGCGGGGCGGAGTCACCTAGTGCAG,3830 fluorescence intensity (a.u.)
14,ATCGAATTAACATGTAAACGTCATGTCAATACTACATAGGCGGAGTCACCTAGTGCAG,5040 fluorescence intensity (a.u.)
15,GGGTTGGTGGTGCTGCGTGCAGGTCACGGCCGCTACGGCTCGGAGTCACCTAGTGCAG,4130 fluorescence intensity (a.u.)
16,TTTATATCATCTGGATGGGAGGGTTCTGCAACTGATGCTACGGAGTCACCTAGTGCAG,3720 fluorescence intensity (a.u.)
17,GGCGTACCGTGCGCCCATGCGCGACGCGTGGCACGCGCTCCGGAGTCACCTAGTGCAG,7700 fluorescence intensity (a.u.)
18,CATATAACAAGTGACTGGCACACAAACCCACAATGAAGTGCGGAGTCACCTAGTGCAG,43500 fluorescence intensity (a.u.)
19,AGCCTAGCTATGATGTGTTCCCACACCAGCTAGCTAGCTTCGGAGTCACCTAGTGCAG,4640 fluorescence intensity (a.u.)
20,AGCCCGGCCCACCACGGGGTTTCCCTCTTCTCTAGGCCCGCGGAGTCACCTAGTGCAG,50600 fluorescence intensity (a.u.)
21,GAAGTAGAAATTTGATGTGGCCACTTTCACGTAGATCTATCGGAGTCACCTAGTGCAG,4130 fluorescence intensity (a.u.)
